Each structure is given as a SMILES string. The list shows only some results of the screen, not a fair sample: it gathers tests that were run many times, whatever their T/C, doses with no T/C, and many T/C values between a quarter and a half above the control. Further doses and runs are listed elsewhere. T/C is the treated group as % of the vehicle group. Some entries give survivors of the animals treated and no T/C: the source files T/C as zero there, which appears to mark a toxic dose or a test without result, not a measured value. Some survivor counts are full or nearly so, which does not show that the dose was tolerated: the source hardly ever lists a survival T/C far under the control, and the zero likely stands for such cases as well. Counts of survivors are from the toxicity check (mostly the fifth day) where no day follows; animals may have died later. Schedules are NCI's codes, taken here to give the interval after Q, in days (D) or hours (H), and the number of doses after X. Some schedules carry Z or #; the key to these is not given.

This assay has as its system L1210 leukemia ip in BDF1 mice, survival T/C. Put plainly: NCI In Vivo Anticancer Drug Screen. Data for tumor model L1210 Leukemia (intraperitoneal) in B6D2F1 (BDF1) mice. The conditions noted are these: T/C endpoint: mean survival time, higher T/C = longer survival.
[1] abbreviates: dose: 200.0 mg/kg/injection, schedule: Q01DX009 (ip), vehicle: Klucel (hydroxypropylcellulose) (HPC).
Where [2] appears, read: dose: 400.0 mg/kg/injection, schedule: Q01DX009 (ip), vehicle: Klucel (hydroxypropylcellulose) (HPC).
Setting [3] is: dose: 400.0 mg/kg/injection, schedule: Q04DX003 (ip), vehicle: Klucel (hydroxypropylcellulose) (HPC).
[4] abbreviates: dose: 100.0 mg/kg/injection, schedule: Q04DX003 (ip), vehicle: Klucel (hydroxypropylcellulose) (HPC).
Setting [5] is: dose: 200.0 mg/kg/injection, schedule: Q04DX003 (ip), vehicle: Klucel (hydroxypropylcellulose) (HPC).
[6] abbreviates: dose: 200.0 mg/kg/injection, schedule: Q01DX009 (ip), vehicle: saline.

As to `O=S(=O)(/C=C(/Cl)c1ccccc1)c1ccccc1`, the survivor count is recorded as 6 of 6 (dose: 100.0 mg/kg/injection, schedule: Q01DX009 (ip), vehicle: acetone); 1 of 6 (dose: 200.0 mg/kg/injection, schedule: Q04DX003 (ip), vehicle: acetone); 0 of 6 (dose: 400.0 mg/kg/injection, schedule: Q04DX003 (ip), vehicle: acetone).

As for `CCc1ccccc1NC(=O)Sc1cccc(C)c1`, the survivor count is, setting by setting: under setting [1], 0 of 6; under setting [2], 0 of 6; under setting [3], 2 of 6.

Consider `NC1(c2ccccc2)CC1`, for which the survivor count is given as 1 of 3 (dose: 200.0 mg/kg/injection, schedule: Q04DX002 (ip), vehicle: Klucel (hydroxypropylcellulose) (HPC)) and 0 of 3 (dose: 400.0 mg/kg/injection, schedule: Q04DX002 (ip), vehicle: Klucel (hydroxypropylcellulose) (HPC)).

Take `CN(C)CC1CCC/C(=C\C=C\c2ccccc2)C1=O` (stereo unspecified): the survivor count reads like this: under setting [4], 5 of 6; under setting [5], 1 of 6; under setting [3], 0 of 6.

As to `CCCNC(=O)Sc1ccc(C(C)(C)C)cc1`, the survivor count was 3 of 3 under setting [1] and 0 of 3 under setting [2].

With `CC1=NC(C(=O)Cl)NN1c1ccccc1` (stereo unspecified), the survivor count (dose: 200.0 mg/kg/injection, schedule: Q01DX001 (ip), vehicle: saline) was 6 of 6 and the survivor count (dose: 400.0 mg/kg/injection, schedule: Q01DX001 (ip), vehicle: saline) is 3 of 6.

Consider `CCC(CN(C)C)C(=O)c1ccccc1` (stereo unspecified), for which the survivor count was 0 of 6 (dose: 50.0 mg/kg/injection, schedule: Q01DX009 (ip), vehicle: saline); 0 of 6 (dose: 100.0 mg/kg/injection, schedule: Q01DX009 (ip), vehicle: saline); 0 of 6 under setting [6].

On to `C[N+](C)(C)Cc1ncccc1OC(=O)N(c1ccccc1)c1ccccc1`, for which the survivor count (dose: 200.0 mg/kg/injection, schedule: Q04DX003 (ip), vehicle: saline with Tween-80) was 5 of 6 and the survivor count (dose: 400.0 mg/kg/injection, schedule: Q04DX003 (ip), vehicle: saline with Tween-80) was 0 of 6.

For `CCC[CH2][Pb]([CH2]CCC)([CH2]CCC)[N](C#N)C#N`, the survivor count is listed as 2 of 3 (dose: 200.0 mg/kg/injection, schedule: Q04DX002 (sc), vehicle: olive oil, sesame oil, peanut oil) and 2 of 3 (dose: 400.0 mg/kg/injection, schedule: Q04DX002 (sc), vehicle: olive oil, sesame oil, peanut oil).

Regarding `CCOC(=O)c1cnc(SC)nc1Nc1cccc(C(F)(F)F)c1`, where the note is “dose: 200.0 mg/kg/injection, schedule: Q01DX001 (ip), vehicle: gum acacia”, the survivor count is given as 6 of 6.

Take `CC(=O)CCC(C(=O)c1ccccc1)c1ccccc1` (stereo unspecified): the survivor count was 5 of 6 (dose: 333.0 mg/kg/injection, schedule: Q01DX Z (ip), vehicle: methylcellulose (MC)) and 3 of 6 (dose: 500.0 mg/kg/injection, schedule: Q01DX Z (ip), vehicle: methylcellulose (MC)).

For the compound `CCOC(=O)c1cc(=O)c2c(ccc3ccccc32)[nH]1`, under setting [3], the survivor count is 2 of 6.

In the case of `CCCNC(Cc1ccccc1)c1ccco1` (stereo unspecified), the survivor count under setting [6] is 0 of 3 and the survivor count (dose: 400.0 mg/kg/injection, schedule: Q04DX002 (ip), vehicle: saline) is reported as 3 of 3.

As for `CN(C)/N=C\c1ccc([N+](C)(C)C)cc1`, the survivor count was 2 of 3 under setting [4], 0 of 3 under setting [5] and 0 of 3 under setting [3].

(Values after PubChem BioAssay AID248 (DTP/NCI, 2004).)
